The list shows only some results of the screen, not a fair sample: it gathers tests that were run many times, whatever their T/C, doses with no T/C, and many T/C values between a quarter and a half above the control. Other doses and runs of a compound stand elsewhere. T/C: endpoint of the treated group in % of that of the vehicle group. Some entries give survivors of the animals treated and no T/C: the source holds a T/C of zero for them, seemingly a mark for toxic or unscored doses. Some survivor counts are full or nearly so, which does not show that the dose was tolerated: the source hardly ever lists a survival T/C far under the control, and the zero likely stands for such cases as well. Survivors were counted at the toxicity check, usually on the fifth day, unless a day is given; later deaths do not show. Schedule codes are those of the source, read here as Q, the interval in days (D) or hours (H), X, the number of doses. Some molecules as drawn cover several salts, stereoisomers or complexes of the source; a dose is that of the sample tested. Some entries hold several experiments; their values stand side by side, smallest first. Some schedules carry Z or #; the key to these is not given. Signs of the kind (2×) give the number of equal values in this list. For survival time, the PubChem record calls one and a half times the control and up active, and a quarter to a half above the control has no call in these data; cut-offs in other NCI protocols can differ. Some T/C values are followed by the survivors on the day toxicity was checked, most often the fifth; without a count, all were alive then.
System: L1210 leukemia ip in BDF1 mice, survival T/C
Experiment: NCI In Vivo Anticancer Drug Screen. Data for tumor model L1210 Leukemia (intraperitoneal) in B6D2F1 (BDF1) mice
Conditions: T/C endpoint: mean survival time, higher T/C = longer survival
[1] = dose: 400.0 mg/kg/injection, schedule: Q01DX001 (ip), vehicle: saline
[2] = dose: 400.0 mg/kg/injection, schedule: Q04DX003 (ip), vehicle: saline with Tween-80
[3] = dose: 400.0 mg/kg/injection, schedule: Q01DX001 (ip), vehicle: saline with Tween-80
[4] = dose: 100.0 mg/kg/injection, schedule: Q04DX003 (ip), vehicle: saline with Tween-80
[5] = dose: 200.0 mg/kg/injection, schedule: Q04DX003 (ip), vehicle: saline with Tween-80
[6] = dose: 400.0 mg/kg/injection, schedule: Q04DX003 (ip), vehicle: saline
[7] = dose: 400.0 mg/kg/injection, schedule: Q04DX002 (ip), vehicle: Klucel (hydroxypropylcellulose) (HPC)
[8] = dose: 100.0 mg/kg/injection, schedule: Q04DX003 (ip), vehicle: saline
[9] = dose: 400.0 mg/kg/injection, schedule: Q04DX002 (ip), vehicle: saline with Tween-80
[10] = dose: 400.0 mg/kg/injection, schedule: Q01DX009 (ip), vehicle: saline with Tween-80

## C=CN1CCCC1=O
[1]
  survivor count: 4 of 4

## CCc1nc2ccccc2[nH]1
[2]
  survivor count: 2 of 6

## COc1ccc(Cl)cc1[N+](=O)[O-]
dose: 100.0 mg/kg/injection, schedule: Q01DX001 (ip), vehicle: Klucel (hydroxypropylcellulose) (HPC)
  survivor count: 6 of 6

## CC1=C(C)C(=O)C(SC2CC(=O)OC2=O)=C(C)C1=O (stereo not given)
dose: 200.0 mg/kg/injection, schedule: Q01DX001 (ip), vehicle: saline with Tween-80
  survivor count: 6 of 6
[3]
  survivor count: 6 of 6

## O=Nc1ccc(NO)c2ccccc12
[4]
  survivor count: 2 of 4
[5]
  survivor count: 0 of 4
dose: 200.0 mg/kg/injection, schedule: Q04DX003 (ip), vehicle: saline
  survivor count: 6 of 6
[2]
  survivor count: 0 of 4
[6]
  survivor count: 5 of 6

## N#CC1(c2ccccc2)OC1(c1ccccc1)c1ccccc1 (stereo not given)
[7]
  survivor count: 3 of 3

## COC(=O)/C(C#N)=N/O
[2]
  survivor count: 1 of 6

## C/C(=N/N=C(N)N)c1cccnc1
dose: 240.0 mg/kg/injection, schedule: Q01DX Z (ip), vehicle: saline
  survivor count: 0 of 6
dose: 480.0 mg/kg/injection, schedule: Q01DX Z (ip), vehicle: saline
  survivor count: 0 of 6

## Cc1ccc(S(=O)(=O)C[n+]2cc(C)cc(C)c2)cc1
[6]
  survivor count: 6 of 6

## Cc1cccc(OCCOC(=O)Nc2cccc(C(F)(F)F)c2)c1
dose: 400.0 mg/kg/injection, schedule: Q01DX009 (ip), vehicle: saline
  T/C: 138 % of control

## CC(=O)CC(=O)NCC(CCN1CCCCC1)(c1cccc2ccccc12)C(C)C (stereo not given)
dose: 100.0 mg/kg/injection, schedule: Q01DX009 (ip), vehicle: Klucel (hydroxypropylcellulose) (HPC)
  survivor count: 1 of 6

## Cc1cc(C(C)(C)C)ccc1SC(=O)Nc1cc([N+](=O)[O-])ccc1Cl
dose: 400.0 mg/kg/injection, schedule: Q01DX009 (ip), vehicle: gum acacia
  survivor count: 6 of 6

## CC(C)[P+](c1ccccc1)(c1ccccc1)c1ccccc1
dose: 32.5 mg/kg/injection, schedule: Q01DX009 (ip), vehicle: saline
  survivor count: 4 of 6
dose: 65.0 mg/kg/injection, schedule: Q01DX009 (ip), vehicle: saline
  survivor count: 3 of 6
dose: 80.0 mg/kg/injection, schedule: Q01DX001 (ip), vehicle: saline
  survivor count: 3 of 6
dose: 100.0 mg/kg/injection, schedule: Q01DX001 (ip), vehicle: saline
  survivor count: 2 of 6
[8]
  T/C: 129 % of control [5 of 6 alive]
  survivor count: 0 of 6
dose: 150.0 mg/kg/injection, schedule: Q04DX003 (ip), vehicle: saline
  survivor count: 0 of 6
dose: 200.0 mg/kg/injection, schedule: Q01DX001 (ip), vehicle: saline
  survivor count: 0 of 6 (2×)
[1]
  survivor count: 0 of 6 (2×)

## CCCCCCC(Cl)CCl (stereo not given)
dose: 200.0 mg/kg/injection, schedule: Q01DX009 (ip), vehicle: saline
  survivor count: 1 of 6

## CN=C(NC)c1ccc(NC(=O)c2ccc(C(=O)Nc3ccc(C(=NC)NC)cc3)c(N)c2)cc1
dose: 18.0 mg/kg/injection, schedule: Q01DX Z (ip), vehicle: carboxymethylcellulose (CMC)
  T/C: 139 % of control

## OC1OCCOC1O (stereo not given)
dose: 600.0 mg/kg/injection, schedule: Q01DX009 (ip), vehicle: saline
  survivor count: 5 of 6
dose: 800.0 mg/kg/injection, schedule: Q01DX009 (ip), vehicle: saline
  survivor count: 0 of 6

## CCC[CH2][Sn]([Cl])([CH2]CCC)[S]C(=S)NCCNC(=S)[S][Sn]([Cl])([CH2]CCC)[CH2]CCC
dose: 50.0 mg/kg/injection, schedule: Q04DX002 (ip), vehicle: other
  survivor count: 0 of 3
dose: 100.0 mg/kg/injection, schedule: Q04DX002 (ip), vehicle: other
  survivor count: 0 of 3
dose: 200.0 mg/kg/injection, schedule: Q04DX002 (ip), vehicle: other
  survivor count: 0 of 3
dose: 400.0 mg/kg/injection, schedule: Q04DX002 (ip), vehicle: other
  survivor count: 0 of 3

## Cn1c(=O)cc(CC#N)c2ccccc21
dose: 200.0 mg/kg/injection, schedule: Q01DX001 (ip), vehicle: other
  survivor count: 0 of 6
dose: 400.0 mg/kg/injection, schedule: Q01DX001 (ip), vehicle: other
  survivor count: 0 of 6

## CN1C(=O)CC(C(=O)c2ccc(N3C(=O)C=CC3=O)cc2)(c2ccccc2)C1=O (stereo not given)
dose: 100.0 mg/kg/injection, schedule: Q04DX002 (ip), vehicle: saline with Tween-80
  survivor count: 0 of 3 and 1 of 3
dose: 200.0 mg/kg/injection, schedule: Q04DX002 (ip), vehicle: saline with Tween-80
  survivor count: 0 of 3
[9]
  survivor count: 0 of 3

## C/C(=N/NC(=O)CNC(=O)c1ccccc1)c1ccc2ccccc2c1
[10]
  survivor count: 2 of 6

## c1ccc(-c2ccccc2NC2=NCCO2)cc1
[4]
  survivor count: 6 of 6
[5]
  survivor count: 6 of 6
[2]
  survivor count: 0 of 6

## CS(=O)(=O)Oc1ccc(S(=O)(=O)F)cc1Cl
[7]
  survivor count: 3 of 3

## O=C(O)c1ccc(Oc2nc3ccccc3s2)cc1
[10]
  survivor count: 2 of 6

## [C-]#[N+]CCc1ccccc1
[3]
  survivor count: 0 of 6

## CC/C=C/N1CCCCC1
dose: 200.0 mg/kg/injection, schedule: Q01DX009 (ip), vehicle: saline with Tween-80
  survivor count: 1 of 6
[10]
  survivor count: 0 of 6

## CC(C)(C)[CH2][Sn]([Br])([Br])[CH2]C(C)(C)C
dose: 18.75 mg/kg/injection, schedule: Q01DX001 (ip), vehicle: other
  survivor count: 0 of 6
dose: 37.5 mg/kg/injection, schedule: Q01DX001 (ip), vehicle: other
  survivor count: 0 of 6
dose: 75.0 mg/kg/injection, schedule: Q01DX001 (ip), vehicle: other
  survivor count: 0 of 6
dose: 150.0 mg/kg/injection, schedule: Q01DX001 (ip), vehicle: other
  survivor count: 0 of 6
dose: 300.0 mg/kg/injection, schedule: Q01DX001 (ip), vehicle: other
  survivor count: 0 of 6

## Cc1cc(C)n(C(=O)Nc2ccccc2)n1
[9]
  survivor count: 1 of 3

## O=C(NC(C(=O)SC1=NC=NC2=NC=NC21)C(SC1=NC=NC2=NC=NC21)c1cccnc1)c1ccccc1 (stereo not given)
dose: 11.0 mg/kg/injection, schedule: Q01DX Z (ip), vehicle: saline
  T/C: 143 % of control
dose: 17.0 mg/kg/injection, schedule: Q01DX Z (ip), vehicle: saline
  T/C: 134 % of control
dose: 25.0 mg/kg/injection, schedule: Q01DX Z (ip), vehicle: saline
  T/C: 148 % of control

## CCNCCNCC(Cc1ccccc1)c1ccccc1 (stereo not given)
dose: 200.0 mg/kg/injection, schedule: Q04DX002 (ip), vehicle: saline
  survivor count: 0 of 3
dose: 400.0 mg/kg/injection, schedule: Q04DX002 (ip), vehicle: saline
  survivor count: 0 of 3

## C=CC(C)NC(=S)NNC(=S)NC (stereo not given)
dose: 30.0 mg/kg/injection, schedule: Q01DX015 (ip), vehicle: carboxymethylcellulose (CMC)
  survivor count: 6 of 6
dose: 120.0 mg/kg/injection, schedule: Q01DX015 (ip), vehicle: carboxymethylcellulose (CMC)
  survivor count: 6 of 6
dose: 400.0 mg/kg/injection, schedule: Q01DX001 (ip), vehicle: carboxymethylcellulose (CMC)
  survivor count: 6 of 6

## CC(Br)(C(CC(=O)C1CC1)c1ccccc1)[N+](=O)[O-] (stereo not given)
dose: 25.0 mg/kg/injection, schedule: Q01DX009 (ip), vehicle: other
  survivor count: 6 of 6
dose: 100.0 mg/kg/injection, schedule: Q01DX009 (ip), vehicle: other
  survivor count: 3 of 6
dose: 200.0 mg/kg/injection, schedule: Q04DX003 (ip), vehicle: other
  survivor count: 2 of 6
dose: 400.0 mg/kg/injection, schedule: Q04DX003 (ip), vehicle: other
  survivor count: 0 of 6

## Cc1ccc(S(=O)(=O)/C=C\S(=O)(=O)c2ccc(C)cc2)cc1
dose: 100.0 mg/kg/injection, schedule: Q04DX003 (ip), vehicle: acetone
  survivor count: 0 of 6
dose: 200.0 mg/kg/injection, schedule: Q01DX001 (ip), vehicle: acetone
  survivor count: 1 of 6
dose: 400.0 mg/kg/injection, schedule: Q01DX001 (ip), vehicle: acetone
  survivor count: 0 of 6

Source: PubChem BioAssay AID248 (DTP/NCI, 2004)
